# In the supplement of paper PMC7024190:
# Some of the results follow. Repeats in this data set agree poorly, so a single value says little.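 Human embryonic kidney cells were transiently transfected with a plasmid bearing a Renilla luciferase gene under the HSV-TK promoter. This first-round screen tests roughly ten thousand compounds for ones that increase reporter output.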
# System: HEK 293FT
# Experiment: log relative Renilla luciferase luminescence (reporter expression vs reference, reference not stated) (log (base not stated)); higher = higher recombinant reporter expression
# Conditions: 10 µM; time after transfection 48 h
row,SMILES,log
1,COc1cc(NS(=O)(=O)c2ccc(N)cc2)ncn1 [Sulfamonomethoxine],-0.238
2,CN[C@@H]1[C@H](O[C@H]2[C@H](O[C@H]3[C@H](O)[C@@H](O)[C@H](N=C(N)N)[C@@H](O)[C@@H]3N=C(N)N)O[C@@H](C)[C@]2(O)C=O)O[C@@H](CO)[C@H](O)[C@H]1O [Streptomycin],-0.204
3,CC(C)=CCn1cnc2ncnc(N)c21 [Triacanthine],-0.181
4,Cc1c(CCCl)c(Cl)n2c(nc3ccccc32)c1C#N,-0.224
5,CCN(CC)CCOc1ccc(/C(=C(/Cl)c2ccccc2)c2ccccc2)cc1 [Enclomifene],0.161
6,C[C@]12CC[C@H]3[C@@H](CCC4=CC(=O)CC[C@@]43C)[C@@H]1CC[C@@H]2C(=O)COC(=O)CCc1ccccc1 [Cortexone phenylpropionate],-0.201
7,[O-]c1c[n+](-c2ccccc2)no1 [3-Phenylsydnone],0.07
8,CCN(CC)c1nc2ccccc2n2cnnc12,-0.0949
9,CCN(CC)CCOc1ccccc1C(=O)CCc1ccccc1 [Etafenone],0.0125
10,COc1ccc(NS(=O)(=O)c2ccc(NC(=O)c3ccccc3C(=O)O)cc2)nn1 [Phthalylsulfapyridazine],0.0323
11,COc1cc(C)c(C(=O)Oc2cc(C)c(C(=O)O)c(O)c2)c(O)c1 [Evernic acid],0.151
12,CC(C)=CCc1c2c(c3occ(-c4ccc(O)cc4)c(=O)c3c1O)C=CC(C)(C)O2 [Osaiin],-0.0696
13,O=C(Nc1ccc(Cl)c(Cl)c1)c1cc(Cl)ccc1NS(=O)(=O)c1cccc2nsnc12 [Triclazan],0.00781
14,Clc1ccc2c(c1)C(c1ccccc1)=Nc1ccc(Cl)cc1C(c1ccccc1)=N2,0.0449
15,Cn1c(=O)c2c(nc(Br)n2C)n(C)c1=O [Xanthobine],0.0486
16,C[C@@H](O)[C@H]1C(=O)N2C(C(=O)O)=C(S[C@@H]3CN[C@H](CNS(N)(=O)=O)C3)[C@H](C)[C@H]12 [Doripenem],-0.157
17,CCCCCCCCCC(=O)N[C@H]1[C@H](Oc2c3cc4cc2Oc2ccc(cc2Cl)[C@@H](O[C@@H]2O[C@H](CO)[C@@H](O)[C@H](O)[C@H]2NC(C)=O)[C@@H]2NC(=O)[C@H](NC(=O)[C@@H]4NC(=O)[C@H]4NC(=O)[C@@H](Cc5ccc(c(Cl)c5)O3)NC(=O)[C@H](N)c3ccc(O)c(c3)Oc3cc(O)cc4c3)c3ccc(O)c(c3)-c3c(OC4O[C@H](CO)[C@@H](O)[C@H](O)[C@@H]4O)cc(O)cc3[C@@H](C(=O)O)NC2=O)O[C@H](CO)[C@@H](O)[C@@H]1O (stereo partly drawn) [Teicoplanin],-0.285

row,SMILES,log
1,COc1ccc2c(=O)c(-c3ccc(OC)c(OC)c3)coc2c1 [Cabreuvin],0.148
2,COc1cc2c(O)c3c(c(-c4ccc5c(c4)OCO5)c2cc1OC)C(=O)OC3 [Diphyllin],-0.255
3,CCC(=O)OCC(=O)[C@@]1(O)CC[C@H]2[C@@H]3CCC4=CC(=O)CC[C@]4(C)[C@H]3[C@@H](O)C[C@@]21C [Hydrocortisone propionate],0.107
4,COc1n[nH]c2nncnc12 [Fluviol A],-0.127
5,Nc1cccc2c1CN(C1CCC(=O)NC1=O)C2=O (stereo not drawn) [Lenalidomide],-1.07
6,Oc1c(Br)cc(Cl)cc1Sc1cc(Cl)cc(Br)c1O [Galosfen],0.0159
7,CCCCN1CCCCC1C(=O)Nc1c(C)cccc1C (stereo not drawn) [Bupivacaine],0.0199
8,C=C(C)C(CC=C(C)C)Cc1c(O)cc(O)c2c1O[C@H](c1ccc(O)cc1O)CC2=O (stereo partly drawn) [Sophoraflavone G],-0.0464
9,COc1ccc(/C=N/NC(=O)c2ccncc2)c(C(=O)O)c1OC [Opiniazide],0.197
10,O=C1C(=O)N(Cc2ccc(Cl)c(Cl)c2)c2ccccc21 [Apoptosis Activator II],-0.0682
11,CCOC(=O)CCc1nc2ccccc2[nH]1 [Procodazole-ethyl-ester],-0.198
12,CC(C)=CCC1=C(O)C(=O)c2ccccc2C1=O [Lapachol],-0.062
13,Nc1nc2c(Cl)c(Cl)ccc2s1,0.0638
14,C=C1C(=O)O[C@H]2CC(=C)[C@@H](O)CC/C(C)=C/[C@@H](O)[C@H]12 [Tanachin],-0.0641
15,CCCS(=O)(=O)c1ccc2nc(NC(=O)OC)[nH]c2c1 [Albendazole sulfone],0.139
16,Cc1nnc(SCC2=C(C(=O)O)N3C(=O)[C@@H](NC(=O)Cn4cnnn4)[C@H]3SC2)s1 [Cefazolin],-0.0163

# Laid out differently: entries from further up
row	SMILES	log
12	CC(C)=CCC1=C(O)C(=O)c2ccccc2C1=O [Lapachol]	-0.062
13	Nc1nc2c(Cl)c(Cl)ccc2s1	0.0638
